No constants are given. Whether binding was seen depends on the method and setting. In cells and extracts the contact can be indirect. Some results given as binding are weak or reduced against the parent protein; the word gives no strength.
Molecular target: T1, Signal Transducer and Activator of Transcription 1 (STAT1) (mouse (endogenous in R1 mESC-derived EBs and MC3T3-E1)) (UniProt P42225)
T1 sequence: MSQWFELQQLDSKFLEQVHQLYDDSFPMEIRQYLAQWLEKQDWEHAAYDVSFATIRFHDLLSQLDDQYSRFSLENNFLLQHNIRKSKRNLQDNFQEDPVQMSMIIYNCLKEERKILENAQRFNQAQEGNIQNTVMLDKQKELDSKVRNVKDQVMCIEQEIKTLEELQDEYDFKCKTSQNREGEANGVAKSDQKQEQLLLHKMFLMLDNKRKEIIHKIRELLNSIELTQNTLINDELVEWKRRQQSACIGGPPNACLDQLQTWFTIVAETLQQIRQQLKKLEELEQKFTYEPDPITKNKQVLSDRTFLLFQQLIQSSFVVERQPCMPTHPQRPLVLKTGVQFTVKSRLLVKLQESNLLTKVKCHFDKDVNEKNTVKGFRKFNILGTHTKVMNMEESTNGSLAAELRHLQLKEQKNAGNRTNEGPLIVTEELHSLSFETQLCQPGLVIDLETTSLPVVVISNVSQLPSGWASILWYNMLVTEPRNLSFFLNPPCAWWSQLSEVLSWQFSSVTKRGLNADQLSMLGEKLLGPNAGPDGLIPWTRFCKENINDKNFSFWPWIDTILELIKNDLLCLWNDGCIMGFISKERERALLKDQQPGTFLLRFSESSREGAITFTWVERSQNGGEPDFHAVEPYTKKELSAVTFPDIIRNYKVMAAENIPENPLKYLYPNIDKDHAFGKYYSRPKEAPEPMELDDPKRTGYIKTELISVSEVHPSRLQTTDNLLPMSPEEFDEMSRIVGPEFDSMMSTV
Assay: co-IP; IP with anti-STAT1 from lysates of MC3T3-E1 cells (control of the c-Src siRNA experiment), 48 hrs post-transfection; blot for Runx2 and STAT1

By UniProt entry, the sequences of proteins in these tests, tags left out.
UniProt Q08775: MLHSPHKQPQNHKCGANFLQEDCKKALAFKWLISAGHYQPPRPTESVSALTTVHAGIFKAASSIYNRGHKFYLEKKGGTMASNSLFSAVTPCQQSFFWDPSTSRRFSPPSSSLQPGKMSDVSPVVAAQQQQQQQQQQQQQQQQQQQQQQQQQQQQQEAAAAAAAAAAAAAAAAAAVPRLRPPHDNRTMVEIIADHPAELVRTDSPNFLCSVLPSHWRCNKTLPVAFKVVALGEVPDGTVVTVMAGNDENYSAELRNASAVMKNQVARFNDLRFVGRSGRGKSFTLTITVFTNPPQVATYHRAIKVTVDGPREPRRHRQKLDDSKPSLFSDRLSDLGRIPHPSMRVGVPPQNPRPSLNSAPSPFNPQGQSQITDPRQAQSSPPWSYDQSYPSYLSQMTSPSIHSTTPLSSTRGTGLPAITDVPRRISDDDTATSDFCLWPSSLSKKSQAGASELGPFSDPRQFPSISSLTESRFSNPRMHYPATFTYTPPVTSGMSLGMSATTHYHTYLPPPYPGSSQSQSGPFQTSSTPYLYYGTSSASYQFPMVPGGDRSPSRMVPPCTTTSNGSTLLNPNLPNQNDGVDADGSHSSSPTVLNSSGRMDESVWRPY

binding: binds
Substance: Runt-related transcription factor 2 (Runx2) (from UniProt Q08775 1-607)

— PMC7660501
